# Measurements reported in PubChem BioAssay AID743121 (NCATS, 2013)
# Aim: 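Knock-downs that sensitise breast cancer cells to camptothecin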 (primary screen)
# Cell system: MDA-MB-231 cells, a human breast cancer line
# Knock-down reagent: single siRNA against human genes, 20 nM siRNA (0.8 pmol per well)
# Time to read-out: 120 h (drug added 48 h after transfection, read 72 h later)
# Challenge: camptothecin 20 nM (about EC30) for 72 h; vehicle 0.1% DMSO in parallel plates
# Detection: 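Cell viability by ATP luminescence (CellTiter-Glo) as % of non-targeting siRNA wells, and the log2 ratio of viability without drug over viability with camptothecin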
# Reading the numbers: log2 vehicle/camptothecin viability: higher = stronger sensitisation to camptothecin
# Rule for the call: 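Active genes have an RSA gene-level p-value below 0.001, computed from the ratios of their separate siRNAs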
# In all, the deposit lists about 26,000 reagents; below is an unselected part. 167 of them (0.63%) were called active. 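Calls are per gene from RSA p-values that are not deposited; an individual active-marked siRNA can sensitise only weakly.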 Reagents against one gene are numbered here. Further read-outs or replicates are left out here. No sequences are given here.
gene knocked down,siRNA no.,log2 vehicle/camptothecin viability,activity call
AASS,1,-0.141,inactive
AASS,2,-0.243,inactive
AASS,3,-0.119,inactive
AASS,4,-0.237,inactive
RAB5A,1,0.244,inactive
RAB5A,2,-0.336,inactive
RAB5A,3,-0.0551,inactive
AMHR2,1,0.0323,inactive
AMHR2,2,-0.162,inactive
AMHR2,3,-0.0553,inactive
AMHR2,4,-0.462,inactive
PRSS35,1,-0.364,inactive
PRSS35,2,-0.219,inactive
PRSS35,3,-0.421,inactive
PRSS35,4,-0.329,inactive
CHRM1,1,-0.258,inactive
CHRM1,2,-0.0697,inactive
CHRM1,3,0.49,inactive
CHRM1,4,-0.488,inactive
CLECL1,1,-0.137,inactive
CLECL1,2,-0.292,inactive
CLECL1,3,-0.163,inactive
CLECL1,4,-0.318,inactive
NBN,1,-0.262,inactive
NBN,2,-0.583,inactive
NBN,3,-0.228,inactive
ECE1,1,-0.547,inactive
ECE1,2,0.0122,inactive
ECE1,3,0.051,inactive
ELP1,1,0.205,inactive
ELP1,2,-0.319,inactive
ELP1,3,-0.134,inactive
ELP1,4,-0.439,inactive
FDPS,1,-0.0577,inactive
FDPS,2,0.00499,inactive
FDPS,3,0.317,inactive
FDPS,4,-0.343,inactive
TCF19,1,0.268,inactive
TCF19,2,0.27,inactive
TCF19,3,0.036,inactive
GNA14,1,-0.0507,inactive
GNA14,2,-0.432,inactive
GNA14,3,0.022,inactive
GNA14,4,-0.0213,inactive
IRS1,1,-0.236,inactive
IRS1,2,-0.562,inactive
IRS1,3,-0.236,inactive
